# Reference: the supplement of paper PMC8728848
# The other results are listed elsewhere or left out.
# How the values were obtained:
# Test in all cases: glycan array binding signal (z-score within array); higher = stronger binding
# Conditions in all cases: glycan notation: IUPAC condensed, linker removed
# [1] = target: Man(a1-3)[Man(a1-6)]Man(a1-6)[Man(a1-2)Man(a1-3)]Man(b1-4)GlcNAc(b1-4)GlcNAc
# How it was run: (§1)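 From the Consortium for Functional Glycomics database, 3228 arrays were curated, keeping only those whose protein sequence was available. Binding is given as a within-array Z-score averaged across arrays sharing a protein sequence and across linkers. Negative Z-scores can be read as non-binding.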
# [2] = target: Man(a1-3)[Man(a1-6)]Man(a1-6)[Man(a1-3)]Man
# How it was run: as §1
# [3] = target: Man(a1-3)[Man(a1-6)]Man(a1-6)[Man(a1-3)]Man(b1-4)GlcNAc(b1-4)GlcNAc
# How it was run: as §1
# [4] = target: Man(a1-3)[Man(a1-6)]Man(b1-4)GlcNAc(b1-4)GlcNAc
# How it was run: as §1
# [5] = target: Man(a1-6)Man
# How it was run: as §1
# [6] = target: Man(b1-4)GlcNAc
# How it was run: as §1
# [7] = target: Neu5Ac(a2-3)Gal
# How it was run: as §1
# [8] = target: Neu5Ac(a2-3)Gal(b1-3)GalNAc
# How it was run: as §1
# [9] = target: Neu5Ac(a2-3)Gal(b1-3)GalNAc(b1-3)Gal(a1-4)Gal(b1-4)Glc
# How it was run: as §1
# [10] = target: Neu5Ac(a2-3)Gal(b1-3)GalNAc(b1-3)Gal(b1-4)GlcNAc
# How it was run: as §1
# [11] = target: Neu5Ac(a2-3)Gal(b1-3)GalNAc(b1-4)[Neu5Ac(a2-3)]Gal(b1-4)Glc
# How it was run: as §1
# [12] = target: Neu5Ac(a2-3)Gal(b1-3)GalNAc6S
# How it was run: as §1
# [13] = target: Neu5Ac(a2-3)Gal(b1-3)GlcNAc
# How it was run: as §1
# [14] = target: Neu5Ac(a2-3)Gal(b1-3)GlcNAc(b1-3)Gal(b1-3)GlcNAc
# How it was run: as §1
# [15] = target: Neu5Ac(a2-3)Gal(b1-3)GlcNAc6S
# How it was run: as §1
# [16] = target: Neu5Ac(a2-3)Gal(b1-3)[Fuc(a1-4)]GlcNAc
# How it was run: as §1
# [17] = target: Neu5Ac(a2-3)Gal(b1-3)[Fuc(a1-4)]GlcNAc(b1-3)Gal(b1-4)[Fuc(a1-3)]GlcNAc
# How it was run: as §1
# [18] = target: Neu5Ac(a2-3)Gal(b1-3)[Neu5Ac(a2-3)Gal(b1-4)]GlcNAc
# How it was run: as §1
# [19] = target: Neu5Ac(a2-3)Gal(b1-3)[Neu5Ac(a2-6)]GalNAc
# How it was run: as §1
# [20] = target: Neu5Ac(a2-3)Gal(b1-4)Glc
# How it was run: as §1
# [21] = target: Neu5Ac(a2-3)Gal(b1-4)GlcNAc
# How it was run: as §1
# [22] = target: Neu5Ac(a2-3)Gal(b1-4)GlcNAc(b1-2)Man(a1-3)[GlcNAc(b1-2)Man(b1-4)GlcNAc(b1-2)Man(a1-6)]Man(b1-4)GlcNAc(b1-4)GlcNAc
# How it was run: as §1
# [23] = target: Neu5Ac(a2-3)Gal(b1-4)GlcNAc(b1-2)Man(a1-3)[Neu5Ac(a2-6)Gal(b1-4)GlcNAc(b1-2)Man(a1-6)]Man(b1-4)GlcNAc(b1-4)GlcNAc
# How it was run: as §1
# [24] = target: Neu5Ac(a2-3)Gal(b1-4)GlcNAc(b1-3)Gal(b1-3)GlcNAc
# How it was run: as §1
# [25] = target: Neu5Ac(a2-3)Gal(b1-4)GlcNAc(b1-3)Gal(b1-4)GlcNAc
# How it was run: as §1
# [26] = target: Neu5Ac(a2-3)Gal(b1-4)GlcNAc(b1-3)Gal(b1-4)GlcNAc(b1-3)Gal(b1-4)GlcNAc
# How it was run: as §1
# [27] = target: Neu5Ac(a2-3)Gal(b1-4)GlcNAc(b1-3)Gal(b1-4)[Fuc(a1-3)]GlcNAc
# How it was run: as §1
# [28] = target: Neu5Ac(a2-3)Gal(b1-4)GlcNAc(b1-6)[Gal(b1-3)]GalNAc
# How it was run: as §1
# [29] = target: Neu5Ac(a2-3)Gal(b1-4)GlcNAc(b1-6)[Neu5Ac(a2-3)Gal(b1-3)]GalNAc
# How it was run: as §1
# [30] = target: Neu5Ac(a2-3)Gal(b1-4)GlcNAc6S
# How it was run: as §1
# [31] = target: Neu5Ac(a2-3)Gal(b1-4)[Fuc(a1-3)]GlcNAc
# How it was run: as §1
# [32] = target: Neu5Ac(a2-3)Gal(b1-4)[Fuc(a1-3)]GlcNAc(b1-3)Gal
# How it was run: as §1
# [33] = target: Neu5Ac(a2-3)Gal(b1-4)[Fuc(a1-3)]GlcNAc(b1-3)Gal(b1-4)GlcNAc
# How it was run: as §1
# [34] = target: Neu5Ac(a2-3)Gal(b1-4)[Fuc(a1-3)]GlcNAc(b1-3)Gal(b1-4)[Fuc(a1-3)]GlcNAc(b1-3)Gal(b1-4)[Fuc(a1-3)]GlcNAc
# How it was run: as §1
# [35] = target: Neu5Ac(a2-3)Gal(b1-4)[Fuc(a1-3)]GlcNAc(b1-6)[Gal(b1-3)]GalNAc
# How it was run: as §1
# [36] = target: Neu5Ac(a2-3)Gal(b1-4)[Fuc(a1-3)]GlcNAc6S
# How it was run: as §1
# [37] = target: Neu5Ac(a2-3)Gal6S(b1-4)GlcNAc
# How it was run: as §1
binder,measurement,setting,value
"MCL (Mus musculus), Q9Z2H6 (protein) MWLEESQMKSKGTRHPQLIPCVFAVVSISFLSACFISTCLVTHHYFLRWTRGSVVKLSDYHTRVTCIREEPQPGATGGTWTCCPVSWRAFQSNCYFPLNDNQTWHESERNCSGMSSHLVTINTEAEQNFVTQLLDKRFSYFLGLADENVEGQWQWVDKTPFNPHTVFWEKGESNDFMEEDCVVLVHVHEKWVWNDFPCHFEVRRICKLPGITFNWKPSK",glycan array binding signal (z-score),[1],0.18
same,glycan array binding signal (z-score),[2],0.384
same,glycan array binding signal (z-score),[3],-0.197
same,glycan array binding signal (z-score),[4],-0.106
same,glycan array binding signal (z-score),[5],-0.764
same,glycan array binding signal (z-score),[6],1.06
same,glycan array binding signal (z-score),[7],-0.436
same,glycan array binding signal (z-score),[8],-0.584
same,glycan array binding signal (z-score),[9],-0.559
same,glycan array binding signal (z-score),[10],-0.471
same,glycan array binding signal (z-score),[11],-0.68
same,glycan array binding signal (z-score),[12],1.7
same,glycan array binding signal (z-score),[13],0.527
same,glycan array binding signal (z-score),[14],0.595
same,glycan array binding signal (z-score),[15],-1.08
same,glycan array binding signal (z-score),[16],-0.576
same,glycan array binding signal (z-score),[17],-0.245
same,glycan array binding signal (z-score),[18],2.08
same,glycan array binding signal (z-score),[19],0.696
same,glycan array binding signal (z-score),[20],-0.222
same,glycan array binding signal (z-score),[21],-0.111
same,glycan array binding signal (z-score),[22],0.867
same,glycan array binding signal (z-score),[23],0.233
same,glycan array binding signal (z-score),[24],-0.565
same,glycan array binding signal (z-score),[25],0.327
same,glycan array binding signal (z-score),[26],0.026
same,glycan array binding signal (z-score),[27],-0.084
same,glycan array binding signal (z-score),[28],-0.716
same,glycan array binding signal (z-score),[29],-0.531
same,glycan array binding signal (z-score),[30],-0.011
same,glycan array binding signal (z-score),[31],0.196
same,glycan array binding signal (z-score),[32],-0.251
same,glycan array binding signal (z-score),[33],-0.166
same,glycan array binding signal (z-score),[34],-0.558
same,glycan array binding signal (z-score),[35],1.04
same,glycan array binding signal (z-score),[36],0.138
same,glycan array binding signal (z-score),[37],-0.385

# As a working copy, part of the list above.
binder,measurement,setting,value
"MCL (Mus musculus), Q9Z2H6 (protein) MWLEESQMKSKGTRHPQLIPCVFAVVSISFLSACFISTCLVTHHYFLRWTRGSVVKLSDYHTRVTCIREEPQPGATGGTWTCCPVSWRAFQSNCYFPLNDNQTWHESERNCSGMSSHLVTINTEAEQNFVTQLLDKRFSYFLGLADENVEGQWQWVDKTPFNPHTVFWEKGESNDFMEEDCVVLVHVHEKWVWNDFPCHFEVRRICKLPGITFNWKPSK",glycan array binding signal (z-score),[24],-0.565
same,glycan array binding signal (z-score),[25],0.327
same,glycan array binding signal (z-score),[26],0.026
